Assay results published in paper PMC9599704 (Biomolecules, 2022).
HELM strings list residues between dots; [ac] is acetyl, [am] amide, other brackets name non-standard units.

Assay: peptide synthesis
Conditions: lipidation step

PEPTIDE1{[pGlu].L.Y.S.A.L.A.N.K.C.C.H.V.G.C.T.K.R.S.L.A.R.F.C}|PEPTIDE2{[Pal].[gGluOtBu].D.S.W.M.E.E.V.I.K.L.C.G.R.E.L.V.R.A.Q.I.A.I.C.G.M.S.T.W.S}$PEPTIDE1,PEPTIDE1,10:R3-15:R3|PEPTIDE1,PEPTIDE2,11:R3-13:R3|PEPTIDE1,PEPTIDE2,24:R3-25:R3$$$V2.0
final HPLC purity (HPLC): > 98% | step yield (relative to RLX2): 30–35%
